# Test results taken from publication PMC7862700.
# Chains of the proteins cited; added tags and fusions are not shown. Lines headed by an entry give the natural chain unless they say otherwise; changes in a name come on top.
# UniProt Q9Y603: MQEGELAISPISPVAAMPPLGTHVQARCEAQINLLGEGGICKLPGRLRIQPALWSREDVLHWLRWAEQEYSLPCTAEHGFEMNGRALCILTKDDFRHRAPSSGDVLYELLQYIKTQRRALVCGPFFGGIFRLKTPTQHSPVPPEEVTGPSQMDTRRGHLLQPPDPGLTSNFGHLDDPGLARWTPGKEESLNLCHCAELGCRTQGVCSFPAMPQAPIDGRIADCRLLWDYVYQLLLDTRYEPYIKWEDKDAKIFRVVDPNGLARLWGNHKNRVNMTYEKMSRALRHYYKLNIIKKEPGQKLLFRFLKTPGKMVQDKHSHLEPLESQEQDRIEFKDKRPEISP
# UniProt P41212: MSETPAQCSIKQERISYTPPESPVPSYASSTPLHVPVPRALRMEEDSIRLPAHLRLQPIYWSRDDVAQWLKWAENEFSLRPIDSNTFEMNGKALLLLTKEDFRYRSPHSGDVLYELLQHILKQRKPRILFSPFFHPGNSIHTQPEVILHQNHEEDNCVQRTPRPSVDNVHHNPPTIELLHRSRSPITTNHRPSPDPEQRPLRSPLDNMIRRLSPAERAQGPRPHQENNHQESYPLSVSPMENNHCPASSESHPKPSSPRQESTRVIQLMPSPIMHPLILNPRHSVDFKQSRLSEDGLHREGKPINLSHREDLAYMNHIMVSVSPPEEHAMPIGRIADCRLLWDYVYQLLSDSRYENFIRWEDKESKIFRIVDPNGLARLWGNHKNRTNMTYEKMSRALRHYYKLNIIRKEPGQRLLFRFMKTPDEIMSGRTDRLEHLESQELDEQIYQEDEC
# This is a selection; strong and weak results do not stand in their true shares. At the low end of the ranking, values are background and their order means little.
# How the values were obtained:
# Experiment in all cases: DAPPL (digital affinity profiling via proximity ligation, sequencing)
# Settings in all cases: 10 mM Tris-HCl pH 7.5, 50 mM NaCl, 1 mM DTT, 4% glycerol, room temperature, 30 min; GST-TFs on glutathione beads, 16-mer random dsDNA library, 0.1% …; high values mean tight binding; double strand, one strand shown; scale: fold enrichment (6-mer frequency, TF over GST control)
# ELF3 = biological target: T1, ELF3 (UniProt P78545)
# T1 sequence: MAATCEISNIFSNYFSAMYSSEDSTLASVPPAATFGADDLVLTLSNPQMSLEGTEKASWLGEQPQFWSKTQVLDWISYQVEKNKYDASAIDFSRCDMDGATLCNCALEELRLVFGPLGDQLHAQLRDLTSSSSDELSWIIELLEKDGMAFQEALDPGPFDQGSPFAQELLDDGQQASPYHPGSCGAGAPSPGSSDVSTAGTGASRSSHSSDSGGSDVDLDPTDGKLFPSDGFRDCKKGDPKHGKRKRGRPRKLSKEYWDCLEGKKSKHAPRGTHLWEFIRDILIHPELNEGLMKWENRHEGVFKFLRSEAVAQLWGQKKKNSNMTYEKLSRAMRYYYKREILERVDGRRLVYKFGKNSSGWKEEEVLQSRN
# ETV7 = ETV7 (UniProt Q9Y603)
# ETV6 = ETV6 (UniProt P41212)
Sequence,binding signal (ELF3),binding signal (ETV7),binding signal (ETV6)
GTGAGG,0.234,0.309,0.227
AGGCGG,0.264,0.351,0.254
TAGCCG,0.858,0.986,0.87
CAGACA,0.685,0.854,0.833
GCCGTG,0.242,0.273,0.244
GGAGGC,0.245,0.307,0.244
AAGAGA,0.912,0.882,0.83
TCAGGC,0.683,0.713,0.688
AGCCAA,0.899,0.82,0.843
GCTGGG,0.793,0.788,0.849
GGAGAC,0.142,0.181,0.14
AGTTCA,0.98,0.975,0.923
CGGGCG,0.387,0.527,0.401
TCCAGG,0.927,0.845,0.878
GAGGCC,0.404,0.436,0.43
GCCGTT,0.859,0.769,0.779
AGCCAG,0.508,0.533,0.416
GTGGGA,0.551,0.567,0.624
CAGAGT,0.709,0.764,0.635
AGTTCG,0.73,0.624,0.783
GAGCTG,0.736,0.72,0.695
GAACGA,0.667,0.776,0.75
GTGGTG,0.811,1,0.862
ACAGTA,0.971,0.895,0.931

Sequence,binding signal (ELF3),binding signal (ETV7),binding signal (ETV6)
AGGGTC,0.861,0.892,0.886
GACGGG,0.39,0.541,0.405
AGCGGA,0.825,0.796,0.902
CAGGGC,0.762,0.808,0.808
TCGCAG,0.825,0.898,0.887
TGCCAG,0.689,0.758,0.673
GGAACG,0.566,0.685,0.594
ACGTCG,0.616,0.631,0.595
CCCAGG,0.79,0.744,0.786
TTGAGT,0.682,0.752,0.667
AGGAGT,0.393,0.463,0.372
GGATAG,0.78,0.746,0.755
GAGCAA,0.885,0.8,0.696
CGGGAA,0.79,0.762,0.842
AGCAGT,0.694,0.718,0.715
ACCGTA,0.891,0.816,0.845
AGTGGG,0.637,0.548,0.674
GGGCAC,0.835,0.819,0.769
GTCGAA,0.58,0.714,0.644
GAGCAC,0.727,0.704,0.729
CCGTAG,0.915,0.882,0.894
AGAGTA,0.779,0.839,0.754
GCCATA,0.862,0.88,0.899
AGGTAG,0.678,0.731,0.71

Sequence,binding signal (ELF3),binding signal (ETV7),binding signal (ETV6)
GGAGAA,0.302,0.397,0.316
GGCATC,0.807,0.739,0.961
ACCGTG,0.225,0.255,0.208
GGAGGG,0.301,0.355,0.314
TCGGTC,0.506,0.609,0.542
AGATCG,0.477,0.519,0.502
GCGGTT,0.726,0.752,0.751
GAGTTG,0.39,0.544,0.528
CAGGCT,0.822,0.764,0.812
GCGCAT,0.788,0.873,0.857
ATTGGA,0.933,0.913,0.995
AGAGGG,0.756,0.822,0.739
ACCAGA,0.98,0.907,0.821
GTCAGC,0.715,0.664,0.662
GACTGG,0.666,0.741,0.657
AGTGTG,0.67,0.744,0.693
CGGTTG,0.701,0.757,0.802
GGGCCC,0.882,0.756,0.78
AGGGGC,0.843,0.822,0.886
AGGCAG,0.567,0.628,0.546
TCGGAA,0.615,0.569,0.612
GACGCG,0.613,0.628,0.604
AGGCCA,0.708,0.664,0.598
GTGCCA,0.849,0.75,0.822

Sequence,binding signal (ELF3),binding signal (ETV7),binding signal (ETV6)
GATTGA,0.938,0.966,0.908
GTTGAG,0.72,0.547,0.676
ACCAGC,0.782,0.878,0.808
TACCAG,0.879,0.878,0.854
GTGAGA,0.352,0.36,0.289
TACCGT,0.707,0.752,0.623
GTCAAG,0.88,0.753,0.835
GCAGGA,0.9,0.759,0.86
ACCATG,0.863,0.887,0.867
GGTGGC,0.71,0.797,0.649
GGGTAG,0.744,0.741,0.629
TCGGCC,0.852,0.743,0.649
GGGTCG,0.556,0.611,0.61
GGCAGT,0.535,0.6,0.539
GGGGCA,0.628,0.722,0.673
GCTTGA,0.904,0.859,0.822
GGACAG,0.56,0.631,0.585
GGCGAA,0.667,0.827,0.721
GGCAGG,0.774,0.622,0.686
ATCGGC,0.687,0.664,0.635
CAGCTG,0.812,0.938,0.802
GTCGGC,0.318,0.442,0.382
CGGGCA,0.657,0.757,0.725
GCACCG,0.823,0.652,0.716

# 7 entries from above, set out differently:
Sequence | binding signal (ELF3) | binding signal (ETV7) | binding signal (ETV6)
GGGTCG | 0.556 | 0.611 | 0.61
GGCAGT | 0.535 | 0.6 | 0.539
GGGGCA | 0.628 | 0.722 | 0.673
GCTTGA | 0.904 | 0.859 | 0.822
GGACAG | 0.56 | 0.631 | 0.585
GGCGAA | 0.667 | 0.827 | 0.721
GGCAGG | 0.774 | 0.622 | 0.686

# Next part:

Sequence,binding signal (ELF3),binding signal (ETV7),binding signal (ETV6)
CGGTAA,0.928,0.925,0.975
GTCAAT,0.833,0.9,0.859
GGACGT,0.497,0.519,0.607
GCATAA,0.917,0.851,0.86
AACGGG,0.585,0.746,0.7
GGTCGG,0.228,0.334,0.297
GGTTGC,0.792,0.997,0.791
GGGCCA,0.621,0.716,0.7
AAGACC,0.888,0.787,0.898
TCAGAG,0.729,0.754,0.703
GGCCAT,0.766,0.89,0.86
CTAGAG,0.995,0.857,0.816
CCGTGT,0.45,0.525,0.497
GCCAGG,0.512,0.578,0.442
TTCGGA,0.794,0.722,0.738
TCAGTG,0.77,0.796,0.766
GCCAAG,0.883,0.858,0.828
CGGTCG,0.372,0.428,0.42
GAGCCA,0.618,0.629,0.617
AGACCG,0.437,0.466,0.483
GCGTGC,0.852,0.782,0.753
GGGGGG,0.537,0.485,0.611
CCGGAG,0.511,0.549,0.497
CGGGTA,0.765,0.877,0.824
